This is an account of results in patent US20030078221.

Chains of the proteins cited; added tags and fusions are not shown. Chains listed by the source or under a name are the forms on record and can include a tag or linker.
Complement C3 (Homo sapiens), one chain, as listed by the source, chain 1 of 2: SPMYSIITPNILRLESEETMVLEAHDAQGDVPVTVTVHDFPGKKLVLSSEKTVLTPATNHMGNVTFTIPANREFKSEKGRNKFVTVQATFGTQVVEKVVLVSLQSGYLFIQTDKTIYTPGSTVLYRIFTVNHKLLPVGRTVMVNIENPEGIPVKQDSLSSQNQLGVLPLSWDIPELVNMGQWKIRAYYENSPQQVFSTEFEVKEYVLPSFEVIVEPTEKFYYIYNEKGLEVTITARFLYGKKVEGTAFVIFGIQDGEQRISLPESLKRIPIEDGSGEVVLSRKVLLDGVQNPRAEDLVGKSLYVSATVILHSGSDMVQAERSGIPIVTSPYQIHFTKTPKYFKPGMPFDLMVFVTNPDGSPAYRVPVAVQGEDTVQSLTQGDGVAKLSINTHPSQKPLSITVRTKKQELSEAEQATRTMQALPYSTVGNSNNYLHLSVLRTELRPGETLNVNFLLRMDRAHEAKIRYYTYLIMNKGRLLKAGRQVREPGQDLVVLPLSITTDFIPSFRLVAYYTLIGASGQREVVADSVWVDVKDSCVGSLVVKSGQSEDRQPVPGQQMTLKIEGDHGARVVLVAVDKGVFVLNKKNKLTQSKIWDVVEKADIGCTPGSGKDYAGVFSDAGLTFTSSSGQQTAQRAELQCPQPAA
Complement C5 (Homo sapiens), one chain, as listed by the source, chain 2 of 2: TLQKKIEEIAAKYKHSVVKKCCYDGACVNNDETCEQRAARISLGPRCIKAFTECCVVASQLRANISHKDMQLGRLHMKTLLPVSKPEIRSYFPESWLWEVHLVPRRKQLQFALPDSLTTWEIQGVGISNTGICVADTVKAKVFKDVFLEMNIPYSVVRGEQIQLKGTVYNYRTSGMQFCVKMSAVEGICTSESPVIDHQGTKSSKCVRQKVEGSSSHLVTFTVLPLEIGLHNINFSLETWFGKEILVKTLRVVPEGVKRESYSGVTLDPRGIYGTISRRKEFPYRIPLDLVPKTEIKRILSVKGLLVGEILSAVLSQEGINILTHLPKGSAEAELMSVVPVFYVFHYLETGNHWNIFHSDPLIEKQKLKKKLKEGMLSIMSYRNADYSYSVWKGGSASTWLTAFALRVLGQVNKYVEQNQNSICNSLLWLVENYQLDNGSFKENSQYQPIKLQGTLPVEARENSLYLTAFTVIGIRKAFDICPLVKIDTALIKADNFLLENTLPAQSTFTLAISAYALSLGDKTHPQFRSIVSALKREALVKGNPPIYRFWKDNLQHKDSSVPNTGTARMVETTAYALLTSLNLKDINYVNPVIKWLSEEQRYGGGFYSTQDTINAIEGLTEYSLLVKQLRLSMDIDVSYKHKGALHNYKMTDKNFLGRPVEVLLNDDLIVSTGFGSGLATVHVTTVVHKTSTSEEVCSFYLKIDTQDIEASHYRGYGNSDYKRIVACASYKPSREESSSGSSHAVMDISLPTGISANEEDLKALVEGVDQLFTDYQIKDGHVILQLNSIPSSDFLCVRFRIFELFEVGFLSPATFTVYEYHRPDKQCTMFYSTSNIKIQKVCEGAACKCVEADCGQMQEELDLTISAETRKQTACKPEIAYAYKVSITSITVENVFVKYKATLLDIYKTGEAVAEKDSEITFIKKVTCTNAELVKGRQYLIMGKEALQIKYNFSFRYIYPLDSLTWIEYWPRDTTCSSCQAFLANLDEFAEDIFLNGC

For some of these results: For at least one entry, the source does not settle the construct or the ends of the probe.

One data set has as its system Complement C3 (Homo sapiens). In words: SELEX. The note with it: 2'-F pyrimidines; selected ligand, no individual value; purified native protein; protein details: Quidel.
As to “GGGAGGACGAUGCGGAACUCAAUGGGCCGACUUUCCGUGGUCCUCAGACGACUCGCCCGA [C3C 162]”, the selection result is recorded as “selected”.
The same measure, in the same setting: the result for “GGGAGGACGAUGCGGAACUCAAUGGGCCGACUUUUCCGUGGUCCUCAGACGACUCGCCCGA [C3c 32]” reads “selected”; that for “GGGAGGACGAUGCGGAACUCAAUGGGCCGACUUUUCCGUGGUCCUCAGACGACUGCCCGA [27C3B143]”, “selected”.
On the same count and under the same terms, the result for “GGGAGGACGAUGCGGAACUCAAUGGGCCGACUUUUUCCGUGUCCUCAGACGACUCGCCCG [C3C 186]” reads “selected”; that for “GGGAGGACGAUGCGGAACUCAAUGGGCCUACUUUUCCGUGGUCCUCAGACGACUCGCCCGA [C3C 16]”, “selected”; that for “GGGAGGACGAUGCGGAACUCAAUGGGCCUACUUUUUCCGUGGUCCUCAGACGACUCGCCCGA [C3c 10]”, “selected”.
The same measure, in the same setting: the result for “GGGAGGACGAUGCGGACGCAGGGGAUGCUCACUUUGACUUUAGGCCAGACGACUCGCCCG [30C3B149]” reads “selected”; that for “GGGAGGACGAUGCGGACUCGGCAUUCACUAACUUUUGCGCUCGUCAGACGACUCGCCCGA [C3a 29c]”, “selected”.
As to “GGGAGGACGAUGCGGAUAACGAUUCGGCAUUCACUAACUUCUCGUCAGACGACUCGCCCGA [C3B 25]”, the selection result is “selected”.
On the same count and under the same terms, the result for “GGGAGGACGAUGCGGAUCUGAGCCUAAAGUCAUUGUGAUCAUCCUCAGACGACUCGCCCGA [C3-A 18c]” reads “selected”; that for “GGGAGGACGAUGCGGAUGACGAUUCGGCAUUCACUAACUUCUACUCAGACGACUCGCCCGA [C3C 109]”, “selected”.
Same read-out and setting: as for “GGGAGGACGAUGCGGAUGACGAUUCGGCAUUCACUAACUUCUCAUCAGACGACUCGCCCGA [C3C 155]”, the entry is “selected”; as for “GGGAGGACGAUGCGGAUGACGAUUCGGCAUUCACUAACUUCUCGUCAGACGACUCGCCCGA [C3c 3]”, “selected”; as for “GGGAGGACGAUGCGGCGUCACGAGCUUUAUGCGUUCUCUGUGGUCAGACGACUCGCCCGA [C3B 108]”, “selected”.
On the same count and under the same terms, as for “GGGAGGACGAUGCGGCGUCUCGAGCUCUAUGCGUCCUCUGUGGUCAGACGACUCGCCCGA [C3B 41]”, the entry is “selected”; as for “GGGAGGACGAUGCGGCUUAAAGUUGUUUAUGAUCAUUCCGUACGUCAGACGACUCGCCCGA [C3c 77]”, “selected”; as for “GGGAGGACGAUGCGGGCGUCUCGAGCUCUAUGCGUUCUCUGUGGUCAGACGACUCGCCCGA [C3B 138]”, “selected”.
As for “GGGAGGACGAUGCGGGCGUCUCGAGCUUUAUGCGUUCUCUGUGGUCAGACGACUCGCCCGA [c3a 9c]”, the selection result is given as “selected”.
Same read-out and setting: the result for “GGGAGGACGAUGCGGGCGUUGGCGAUUCCUAAGUGUCGUUCUCGUCAGACGACUCGCCCGA [C3c 35]” reads “selected”.
Still for that read-out and setting: as for “GGGAGGACGAUGCGGGCGUUGGCGAUUGGUAAGUGUCGUUCUCGUCAGACGACUCGCCCGA [C3B 102]”, the entry is “selected”; as for “GGGAGGACGAUGCGGGUGGCGAUUCCAAGUCUUCCGUGAACAUGGUCAGACGACUCGCCCG [C3-23C]”, “selected”.
In the case of “GGGAGGACGAUGCGGUGGCGAUUCCAAGUCUUCCGUGAACAUCAGACGACUCGCCCGA [C3B 23]”, the selection result was “selected”.
Same read-out and setting: as for “GGGAGGACGAUGCGGUGGCGAUUCCAAGUCUUCCGUGAACAUGGUCAGACGACUCGCCCGA [188]”, the entry is “selected”.

The subject of another data set is Complement C5 (Homo sapiens). In words: inhibition of the protein. The settings on record: 2'-F pyrimidines; 2'-OMe G at position 20; hemolysis Ki lower with 2'-OMe substitution; purified native protein; protein details: Quidel; variant of B2010 (YL-13t); dose not given here.
With “CGCCGCGGUCUCAGGCGCUGAGUCUGAGUUUACCUGCG [B2070]”, the “functional effect of the aptamer” value was “active”.

The same data set, now with this note: 2'-F pyrimidines; 2'-OMe at positions 2,7,8,13,14,15,20,21,22,26,27,28,36,38; hemolysis Ki lower with 2'-OMe; Kd marginally better (not shown); purified native protein; protein details: Quidel; variant of B2010 (YL-13t); dose not given here.
For “CGCCGCGGUCUCAGGCGCUGAGUCUGAGUUUACCUGCG [M6040]”, the “functional effect of the aptamer” value is “active”.
